According to publication PMC10374971, “In vivo and in vitro characterizations of melibiose permease (MelB) conformation-dependent nanobodies reveal sugar-binding mechanisms” (The Journal of Biological Chemistry, 2023):
No constants are given. Whether binding was seen depends on the method and setting. Some binding calls cover weakened binding; strength is not graded here. For some assays here: Tags and fused reporters may be left off the sequences shown.

Amino acid sequences for entries named in this document (tags omitted). Residues count along the entry.
UniProt P30878, residues 6-476: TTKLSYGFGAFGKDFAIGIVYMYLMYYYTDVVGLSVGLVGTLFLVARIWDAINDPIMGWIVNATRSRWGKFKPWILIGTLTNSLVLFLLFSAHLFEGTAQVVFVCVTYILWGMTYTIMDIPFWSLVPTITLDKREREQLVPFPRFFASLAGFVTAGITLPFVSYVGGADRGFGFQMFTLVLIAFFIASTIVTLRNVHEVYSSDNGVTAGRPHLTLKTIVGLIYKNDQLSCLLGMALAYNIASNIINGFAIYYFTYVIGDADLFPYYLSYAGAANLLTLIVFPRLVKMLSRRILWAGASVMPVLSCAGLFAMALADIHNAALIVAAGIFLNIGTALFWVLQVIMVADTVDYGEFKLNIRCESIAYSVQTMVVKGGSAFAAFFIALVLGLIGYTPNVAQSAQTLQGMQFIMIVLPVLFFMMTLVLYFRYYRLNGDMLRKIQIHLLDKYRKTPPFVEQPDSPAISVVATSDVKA
UniProt P69783: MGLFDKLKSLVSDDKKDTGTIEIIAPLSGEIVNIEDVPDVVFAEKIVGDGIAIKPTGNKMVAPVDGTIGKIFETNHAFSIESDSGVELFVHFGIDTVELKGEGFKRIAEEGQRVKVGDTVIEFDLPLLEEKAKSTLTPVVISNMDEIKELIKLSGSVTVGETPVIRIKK

What was measured:
[1] = molecular target: Salmonella enterica serovar Typhimurium melibiose permease (MelBSt), wild type (Salmonella enterica serovar Typhimurium) (UniProt P30878); assay: SEC; gel-filtration chromatography of mixed purified proteins; peak fractions analysed by SDS-15%PAGE; both purified
[2] = molecular target: MelR, transcription activator of the melibiose operon melAB in E. coli, two-hybrid fusions MelR:T18 and T25:MelR (E. coli) (UniProt P0ACH8); assay: two-hybrid; bacterial adenylate cyclase (CyaA) T18/T25 two-hybrid in E. coli DH5α ΔcyaA; maltose MacConkey agar plates, 0.2 mM IPTG, 30 °C; red colonies positive

EIIA^Glc of the glucose-specific phosphoenolpyruvate/sugar phosphotransferase system, unphosphorylated (from UniProt P69783 1-169)
binding [1]: binds

B1: MelR, transcription activator of the melibiose operon melAB in E. coli, two-hybrid fusions MelR:T18 and T25:MelR (protein, UniProt P0ACH8 1-302)
chain: MNTDTFMCSSDEKQTRSPLSLYSEYQRMEIEFRAPHIMPTSHWHGQVEVNVPFDGDVEYLINNEKVNINQGHITLFWACTPHQLTDTGTCQSMAIFNLPMHLFLSWPLDKDLINHVTHGMVIKSLATQQLSPFEVRRWQQELNSPNEQIRQLAIDEIGLMLKRFSLSGWEPILVNKTSRTHKNSVSRHAQFYVSQMLGFIAENYDQALTINDVAEHVKLNANYAMGIFQRVMQLTMKQYITAMRINHVRALLSDTDKSILDIALTAGFRSSSRFYSTFGKYVGMSPQQYRKLSQQRRQTFPG
binding [2]: binds
